PubChem BioAssay AID1259254, NCATS – 2017
In all, the deposit lists about 59,000 reagents; below is an unselected part. Of all reagents, about 1,550 (2.6%) were called active. 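G2 share is only a proxy for re-replication; each gene was hit by three separate siRNAs, and active genes were retested.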 Raw values vary from plate to plate and are shown uncorrected. The numbers tell different reagents against one gene apart. The record does not give: the amount of reagent.

Screen: 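Gene knock-downs that lead to re-replication, shown by excess G2 DNA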 (primary screen)
System: human HCT116 colorectal cancer cells
Reagent: single siRNA against human genes
Timing: 3 days
Measured: 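Imaged Hoechst DNA stain sorts each cell into a cycle phase by DNA amount; per plate, G2 fraction set to 0% for non-targeting and 100% for GMNN siRNA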
Scale: G2 robust z-score and G2 cells, % of GMNN control: higher = more G2 cells, more excess DNA replication; raw share of cells in G2: higher = larger share of cells with G2 DNA content
Rule for the call: 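Active siRNAs have a G2 robust z of 5 or more median absolute deviations over the median, which in these data means about 38% or higher of GMNN control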

The first 6 records, to show the layout:
Target gene	siRNA no.	G2 robust z-score	G2 cells, % of GMNN control	raw share of cells in G2 (%)	outcome
MIGA1 (mitoguardin 1)	1	5.39	40.9	18	active
MIGA1 (mitoguardin 1)	2	0.163	4.11	5.06	inactive
MIGA1 (mitoguardin 1)	3	2.5	20.5	12.5	inactive
GTPBP1 (GTP binding protein 1)	1	-0.802	-2.68	3.66	inactive
GTPBP1 (GTP binding protein 1)	2	-0.746	-2.28	4.34	inactive
GTPBP1 (GTP binding protein 1)	3	-0.24	1.28	3.64	inactive

Main list, from the start:
Target gene	siRNA no.	G2 robust z-score	G2 cells, % of GMNN control	raw share of cells in G2 (%)	outcome
MIGA1 (mitoguardin 1)	1	5.39	40.9	18	active
MIGA1 (mitoguardin 1)	2	0.163	4.11	5.06	inactive
MIGA1 (mitoguardin 1)	3	2.5	20.5	12.5	inactive
GTPBP1 (GTP binding protein 1)	1	-0.802	-2.68	3.66	inactive
GTPBP1 (GTP binding protein 1)	2	-0.746	-2.28	4.34	inactive
GTPBP1 (GTP binding protein 1)	3	-0.24	1.28	3.64	inactive
JTB (jumping translocation breakpoint)	1	-1.39	-6.81	2.32	inactive
JTB (jumping translocation breakpoint)	2	-0.197	1.58	4.79	inactive
JTB (jumping translocation breakpoint)	3	0.0259	3.15	4.35	inactive
CUZD1 (CUB and zona pellucida like domains 1)	1	1.73	15.2	9.65	inactive
CUZD1 (CUB and zona pellucida like domains 1)	2	1.01	10.1	8.37	inactive
CUZD1 (CUB and zona pellucida like domains 1)	3	0.201	4.38	4.64	inactive
LCE3D (late cornified envelope 3D)	1	-0.419	0.0174	4.11	inactive
LCE3D (late cornified envelope 3D)	2	5.77	43.6	16.4	active
LCE3D (late cornified envelope 3D)	3	0.559	6.9	4.5	inactive
PGM1 (phosphoglucomutase 1)	1	-1.02	-4.2	3.43	inactive
PGM1 (phosphoglucomutase 1)	2	1.43	13.1	8.23	inactive
PGM1 (phosphoglucomutase 1)	3	2.41	19.9	9.5	inactive
RGS11 (regulator of G protein signaling 11)	1	-0.202	1.55	5.81	inactive
RGS11 (regulator of G protein signaling 11)	2	2.92	23.5	13.1	inactive
RGS11 (regulator of G protein signaling 11)	3	0.0862	3.57	6.16	inactive
NR6A1 (nuclear receptor subfamily 6 group A member 1)	1	-0.736	-2.21	4.94	inactive
NR6A1 (nuclear receptor subfamily 6 group A member 1)	2	-0.0126	2.88	5.53	inactive
NR6A1 (nuclear receptor subfamily 6 group A member 1)	3	1.27	11.9	7.89	inactive
ADAMTS5 (ADAM metallopeptidase with thrombospondin type 1 motif 5)	1	6.33	47.5	22.1	active
ADAMTS5 (ADAM metallopeptidase with thrombospondin type 1 motif 5)	2	1.66	14.7	10.1	inactive
ADAMTS5 (ADAM metallopeptidase with thrombospondin type 1 motif 5)	3	0.188	4.29	5.51	inactive
ZNF311 (zinc finger protein 311)	1	1.11	10.7	6.79	inactive
ZNF311 (zinc finger protein 311)	2	-0.345	0.54	3.35	inactive
ZNF311 (zinc finger protein 311)	3	-0.344	0.549	3.72	inactive
ENTPD1 (ectonucleoside triphosphate diphosphohydrolase 1)	1	-0.168	1.78	5.37	inactive
ENTPD1 (ectonucleoside triphosphate diphosphohydrolase 1)	2	0.662	7.63	6.6	inactive
ENTPD1 (ectonucleoside triphosphate diphosphohydrolase 1)	3	-0.236	1.31	3.89	inactive
ZNF664 (zinc finger protein 664)	1	2.67	21.8	10.7	inactive
ZNF664 (zinc finger protein 664)	2	-0.152	1.9	3.75	inactive
ZNF664 (zinc finger protein 664)	3	0.14	3.95	4.91	inactive
DPP3 (dipeptidyl peptidase 3)	1	-0.413	0.0609	5.58	inactive
DPP3 (dipeptidyl peptidase 3)	2	-0.165	1.81	4.58	inactive
DPP3 (dipeptidyl peptidase 3)	3	4.75	36.4	17.8	inactive
RPL23AP43 (ribosomal protein L23a pseudogene 43)	1	-0.667	-1.73	2.65	inactive
RPL23AP43 (ribosomal protein L23a pseudogene 43)	2	-0.832	-2.89	3.4	inactive
RPL23AP43 (ribosomal protein L23a pseudogene 43)	3	-0.476	-0.382	3.64	inactive
SLC8A2	1	1.25	11.8	7.86	inactive
SLC8A2	2	0.195	4.34	6.03	inactive
SLC8A2	3	-0.503	-0.574	5.49	inactive
PPM1N (protein phosphatase, Mg2+/Mn2+ dependent 1N (putative))	1	-0.217	1.44	3.57	inactive
PPM1N (protein phosphatase, Mg2+/Mn2+ dependent 1N (putative))	2	-0.403	0.131	3.87	inactive
PPM1N (protein phosphatase, Mg2+/Mn2+ dependent 1N (putative))	3	1.05	10.4	6.11	inactive
KCTD4 (potassium channel tetramerization domain containing 4)	1	-0.423	-0.0108	3.09	inactive
KCTD4 (potassium channel tetramerization domain containing 4)	2	0.95	9.65	6.51	inactive
KCTD4 (potassium channel tetramerization domain containing 4)	3	0.669	7.68	6.22	inactive
SIGMAR1 (sigma receptor chaperone 1)	1	1.7	14.9	12.4	inactive
SIGMAR1 (sigma receptor chaperone 1)	2	1.55	13.8	8.32	inactive
SIGMAR1 (sigma receptor chaperone 1)	3	3.28	26	17	inactive
LSP1P5 (LSP1 pseudogene 5)	1	0.894	9.26	7.16	inactive
LSP1P5 (LSP1 pseudogene 5)	2	-0.322	0.702	3.53	inactive
LSP1P5 (LSP1 pseudogene 5)	3	-0.0169	2.85	3.98	inactive
TRAPPC2L (trafficking protein particle complex subunit 2L)	1	0.495	6.45	5.91	inactive
TRAPPC2L (trafficking protein particle complex subunit 2L)	2	3.25	25.8	15.2	inactive
TRAPPC2L (trafficking protein particle complex subunit 2L)	3	0.863	9.04	6.18	inactive
GFUS (GDP-L-fucose synthase)	1	-0.0771	2.42	6.62	inactive
GFUS (GDP-L-fucose synthase)	2	-0.466	-0.311	4.37	inactive
GFUS (GDP-L-fucose synthase)	3	-0.965	-3.82	2.84	inactive
ARFGEF3 (ARFGEF family member 3)	1	-0.307	0.807	4.66	inactive
ARFGEF3 (ARFGEF family member 3)	2	1.46	13.2	10.8	inactive
ARFGEF3 (ARFGEF family member 3)	3	0.364	5.53	4.78	inactive
MRPS9 (mitochondrial ribosomal protein S9)	1	0.257	4.77	6.66	inactive
MRPS9 (mitochondrial ribosomal protein S9)	2	0.678	7.74	8.08	inactive
MRPS9 (mitochondrial ribosomal protein S9)	3	0.69	7.82	4.76	inactive
